The list shows a part of the results. Many values rest on one well or one pass, so single values are uncertain.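 The apoptosis fraction was the count of cleaved-PARP antibody-stained nuclei relative to all DNA-stained nuclei, imaged in 1,536-well plates. Screening doses were set so most cells survived, and baseline and induced cleaved-PARP levels vary greatly across cell lines.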
Experiments:
Assay in all cases: cleaved PARP positive nuclei fraction relative to DMSO control; melanoma cells; higher = more apoptosis
Settings in all cases: library dose: low library concentration; 72 h
COLO792 = system: COLO792
COLO800 = system: COLO800
COLO829 = system: COLO829
G361 = system: G361
IPC-298 = system: IPC-298
IST-MEL1 = system: IST-MEL1
LB2518-MEL = system: LB2518-MEL
LOXIMVI = system: LOXIMVI
MEL-HO = system: MEL-HO

SMILES | cleaved PARP positive nuclei fraction (COLO792) [%] | cleaved PARP positive nuclei fraction (COLO800) [%] | cleaved PARP positive nuclei fraction (COLO829) [%] | cleaved PARP positive nuclei fraction (G361) [%] | cleaved PARP positive nuclei fraction (IPC-298) [%] | cleaved PARP positive nuclei fraction (IST-MEL1) [%] | cleaved PARP positive nuclei fraction (LB2518-MEL) [%] | cleaved PARP positive nuclei fraction (LOXIMVI) [%] | cleaved PARP positive nuclei fraction (MEL-HO) [%]
N.N.[Cl][Pt][Cl] [cisplatin] + Cc1cc(N2CCOCC2)cc2[nH]c(-c3c(NC[C@@H](O)c4cccc(Cl)c4)cc[nH]c3=O)nc12 [BMS536924] (first compound 1.6 µM, partner dose 0.2 µM) | 74.2 | 130 | 80.4 | 143 | 101 | 101 | 201 | 390 | 68.8
C[As](C)SC[C@H](NC(=O)CC[C@H](N)C(=O)O)C(=O)NCC(=O)O [Darinaparsin] + CN(C)S(=O)(=O)c1ccc2c(c1)/C(=C/c1cc3c([nH]1)CCCC3)C(=O)N2 [SU6656] (first compound 0.4 µM, partner dose 0.4 µM) | 86.7 | 152 | 77.7 | 140 | 21.8 | 65.7 | 95.8 | 26.7 | 64.8
C[As](C)SC[C@H](NC(=O)CC[C@H](N)C(=O)O)C(=O)NCC(=O)O [Darinaparsin] + O=C(O)c1ccc(-c2c[nH]c3ncc(-c4ccccc4)cc23)cc1C1CCCC1 [GSK650394] (first compound 0.4 µM, partner dose 0.16 µM) | 67.1 | 65.8 | 66 | 152 | 122 | 136 | 64 | 94.4 | 291
C[C@]12O[C@H](C[C@]1(O)CO)n1c3ccccc3c3c4c(c5c6ccccc6n2c5c31)CNC4=O [Lestaurtinib] + O=C(Nc1cccc(Cl)c1)Nc1ncc(CCNc2ncnc3ccsc23)s1 [SNS314] (first compound 0.004 µM, partner dose 0.0008 µM) | 99.9 | 55.3 | 66.9 | 36.5 | 42.3 | 150 | 181 | 124 | 133
N.N.[Cl][Pt][Cl] [cisplatin] + Cn1cncc1[C@@](N)(c1ccc(Cl)cc1)c1ccc2c(c1)c(-c1cccc(Cl)c1)cc(=O)n2C [tipifarnib] (first compound 1.6 µM, partner dose 0.01 µM) | 93.9 | 73.2 | 169 | 107 | 90.6 | 51.9 | 322 | 75.6 | 65.8
Cn1cc(C2=C(c3cn(C4CCN(Cc5ccccn5)CC4)c4ccccc34)C(=O)NC2=O)c2ccccc21 [Enzastaurin] + O=C(Nc1cccc(Cl)c1)Nc1ncc(CCNc2ncnc3ccsc23)s1 [SNS314] (first compound 0.8 µM, partner dose 0.0008 µM) | 107 | 245 | 95.4 | 114 | 87.4 | 54.2 | 96 | 166 | 56.1
C[As](C)SC[C@H](NC(=O)CC[C@H](N)C(=O)O)C(=O)NCC(=O)O [Darinaparsin] + CN(NC(=O)CC(=O)NN(C)C(=S)c1ccccc1)C(=S)c1ccccc1 [STA4783] (first compound 0.4 µM, partner dose 0.006 µM) | 131 | 47.7 | 88.3 | 184 | 355 | 248 | 252 | 94.3 | 67.2
C[As](C)SC[C@H](NC(=O)CC[C@H](N)C(=O)O)C(=O)NCC(=O)O [Darinaparsin] + CC(C)(C)c1cnc(CSc2cnc(NC(=O)C3CCNCC3)s2)o1 [SNS-032] (first compound 0.4 µM, partner dose 0.01 µM) | 107 | 80.2 | 133 | 109 | 119 | 141 | 144 | 328 | 64.3
Cn1cc(C2=C(c3cn(C4CCN(Cc5ccccn5)CC4)c4ccccc34)C(=O)NC2=O)c2ccccc21 [Enzastaurin] + CN(NC(=O)CC(=O)NN(C)C(=S)c1ccccc1)C(=S)c1ccccc1 [STA4783] (first compound 0.8 µM, partner dose 0.006 µM) | 179 | 89.8 | 152 | 133 | 49 | 109 | 75.9 | 141 | 278
N.N.[Cl][Pt][Cl] [cisplatin] + O=C(Nc1cccc(Cl)c1)Nc1ncc(CCNc2ncnc3ccsc23)s1 [SNS314] (first compound 1.6 µM, partner dose 0.0008 µM) | 221 | 123 | 17.9 | 98.5 | 46.4 | 68.9 | 91.4 | 56.5 | 62.1
C[As](C)SC[C@H](NC(=O)CC[C@H](N)C(=O)O)C(=O)NCC(=O)O [Darinaparsin] + O=C(Nc1cccc(Cl)c1)Nc1ncc(CCNc2ncnc3ccsc23)s1 [SNS314] (first compound 0.4 µM, partner dose 0.0008 µM) | 166 | 86 | 44.6 | 48.8 | 238 | 303 | 111 | 149 | 208
Cn1cc(C2=C(c3cn(C4CCN(Cc5ccccn5)CC4)c4ccccc34)C(=O)NC2=O)c2ccccc21 [Enzastaurin] + OCCn1cc(-c2cnc3nnn(Cc4ccc5ncccc5c4)c3n2)cn1 [PF04217903] (first compound 0.8 µM, partner dose 1 µM) | 55.4 | 91.2 | 119 | 57.6 | 45.7 | 100 | 52.5 | 65.1 | 65.6
N.N.[Cl][Pt][Cl] [cisplatin] + Cc1ccc(NC(=O)c2cccc(N(C)C)c2)cc1NC(=O)c1ccc(O)cc1 [ZM336372] (first compound 1.6 µM, partner dose 2 µM) | 94.6 | 65 | 79.7 | 42.8 | 58 | 148 | 156 | 120 | 70.4
C[As](C)SC[C@H](NC(=O)CC[C@H](N)C(=O)O)C(=O)NCC(=O)O [Darinaparsin] + Cc1ccc(NC(=O)c2cccc(N(C)C)c2)cc1NC(=O)c1ccc(O)cc1 [ZM336372] (first compound 0.4 µM, partner dose 2 µM) | 29.1 | 49.4 | 70.7 | 110 | 60.6 | 62 | 99.9 | 184 | 31.6
N.N.[Cl][Pt][Cl] [cisplatin] + NC(=O)Nc1cc(-c2cccc(F)c2)sc1C(=O)N[C@H]1CCCNC1 [AZD7762] (first compound 1.6 µM, partner dose 0.02 µM) | 122 | 174 | 67.3 | 153 | 183 | 99.5 | 71.6 | 76.5 | 107
Cn1cc(C2=C(c3cn(C4CCN(Cc5ccccn5)CC4)c4ccccc34)C(=O)NC2=O)c2ccccc21 [Enzastaurin] + NC(=O)Nc1cc(-c2cccc(F)c2)sc1C(=O)N[C@H]1CCCNC1 [AZD7762] (first compound 0.8 µM, partner dose 0.02 µM) | 61.8 | 108 | 134 | 76.8 | 171 | 63.5 | 55.9 | 123 | 124
Cn1cc(C2=C(c3cn(C4CCN(Cc5ccccn5)CC4)c4ccccc34)C(=O)NC2=O)c2ccccc21 [Enzastaurin] + Cc1cc(N2CCOCC2)cc2[nH]c(-c3c(NC[C@@H](O)c4cccc(Cl)c4)cc[nH]c3=O)nc12 [BMS536924] (first compound 0.8 µM, partner dose 0.2 µM) | 51.1 | 90.3 | 110 | 84 | 45.6 | 99.7 | 106 | 77.8 | 174
Cn1cc(C2=C(c3cn(C4CCN(Cc5ccccn5)CC4)c4ccccc34)C(=O)NC2=O)c2ccccc21 [Enzastaurin] + Cn1cncc1[C@@](N)(c1ccc(Cl)cc1)c1ccc2c(c1)c(-c1cccc(Cl)c1)cc(=O)n2C [tipifarnib] (first compound 0.8 µM, partner dose 0.01 µM) | 84.5 | 140 | 48.1 | 94.4 | 166 | 94.3 | 80.5 | 75.4 | 43.6
Cn1cc(C2=C(c3cn(C4CCN(Cc5ccccn5)CC4)c4ccccc34)C(=O)NC2=O)c2ccccc21 [Enzastaurin] + COc1cc(Nc2ncc(F)c(Nc3ccc4c(n3)NC(=O)C(C)(C)O4)n2)cc(OC)c1OC [Tamatinib] (first compound 0.8 µM, partner dose 0.4 µM) | 117 | 42.6 | 174 | 96.6 | 59 | 53.6 | 58.6 | 65.1 | 68.8
C[As](C)SC[C@H](NC(=O)CC[C@H](N)C(=O)O)C(=O)NCC(=O)O [Darinaparsin] + NC(=O)Nc1cc(-c2cccc(F)c2)sc1C(=O)N[C@H]1CCCNC1 [AZD7762] (first compound 0.4 µM, partner dose 0.02 µM) | 127 | 85 | 106 | 55.3 | 88.6 | 94.8 | 62.6 | 39.5 | 27.5
Cc1cc(Nc2cc(N3CCN(C)CC3)nc(Sc3ccc(NC(=O)C4CC4)cc3)n2)n[nH]1 [Tozasertib] + Cc1cc(SCc2sc(-c3ccc(C(F)(F)F)c(F)c3)nc2C)ccc1OCC(=O)O [GW0742] (first compound 0.006 µM, partner dose 2 µM) | 64.4 | 93.4 | 61.7 | 111 | 139 | 160 |  | 61.9 | 
N.N.[Cl][Pt][Cl] [cisplatin] + CCN(CC)CCCCNc1ncc2cc(-c3cc(OC)cc(OC)c3)c(NC(=O)NC(C)(C)C)nc2n1 [PD173074] (first compound 1.6 µM, partner dose 0.1 µM) | 99.2 | 67.3 | 47.9 | 116 | 46.3 | 17.9 |  | 52.1 | 
C[C@]12O[C@H](C[C@]1(O)CO)n1c3ccccc3c3c4c(c5c6ccccc6n2c5c31)CNC4=O [Lestaurtinib] + C[C@@H]1CCN(C(=O)CC#N)C[C@@H]1N(C)c1ncnc2[nH]ccc12 [CP690550] (first compound 0.004 µM, partner dose 1 µM) | 61.1 | 74.4 | 126 | 75 | 97.1 | 191 | 191 | 76.4 | 149

Part of the list above in a different format.
SMILES	cleaved PARP positive nuclei fraction (COLO792) [%]	cleaved PARP positive nuclei fraction (COLO800) [%]	cleaved PARP positive nuclei fraction (COLO829) [%]	cleaved PARP positive nuclei fraction (G361) [%]	cleaved PARP positive nuclei fraction (IPC-298) [%]	cleaved PARP positive nuclei fraction (IST-MEL1) [%]	cleaved PARP positive nuclei fraction (LB2518-MEL) [%]	cleaved PARP positive nuclei fraction (LOXIMVI) [%]	cleaved PARP positive nuclei fraction (MEL-HO) [%]
Cn1cc(C2=C(c3cn(C4CCN(Cc5ccccn5)CC4)c4ccccc34)C(=O)NC2=O)c2ccccc21 [Enzastaurin] + OCCn1cc(-c2cnc3nnn(Cc4ccc5ncccc5c4)c3n2)cn1 [PF04217903] (first compound 0.8 µM, partner dose 1 µM)	55.4	91.2	119	57.6	45.7	100	52.5	65.1	65.6
N.N.[Cl][Pt][Cl] [cisplatin] + Cc1ccc(NC(=O)c2cccc(N(C)C)c2)cc1NC(=O)c1ccc(O)cc1 [ZM336372] (first compound 1.6 µM, partner dose 2 µM)	94.6	65	79.7	42.8	58	148	156	120	70.4
C[As](C)SC[C@H](NC(=O)CC[C@H](N)C(=O)O)C(=O)NCC(=O)O [Darinaparsin] + Cc1ccc(NC(=O)c2cccc(N(C)C)c2)cc1NC(=O)c1ccc(O)cc1 [ZM336372] (first compound 0.4 µM, partner dose 2 µM)	29.1	49.4	70.7	110	60.6	62	99.9	184	31.6
N.N.[Cl][Pt][Cl] [cisplatin] + NC(=O)Nc1cc(-c2cccc(F)c2)sc1C(=O)N[C@H]1CCCNC1 [AZD7762] (first compound 1.6 µM, partner dose 0.02 µM)	122	174	67.3	153	183	99.5	71.6	76.5	107
Cn1cc(C2=C(c3cn(C4CCN(Cc5ccccn5)CC4)c4ccccc34)C(=O)NC2=O)c2ccccc21 [Enzastaurin] + NC(=O)Nc1cc(-c2cccc(F)c2)sc1C(=O)N[C@H]1CCCNC1 [AZD7762] (first compound 0.8 µM, partner dose 0.02 µM)	61.8	108	134	76.8	171	63.5	55.9	123	124
Cn1cc(C2=C(c3cn(C4CCN(Cc5ccccn5)CC4)c4ccccc34)C(=O)NC2=O)c2ccccc21 [Enzastaurin] + Cc1cc(N2CCOCC2)cc2[nH]c(-c3c(NC[C@@H](O)c4cccc(Cl)c4)cc[nH]c3=O)nc12 [BMS536924] (first compound 0.8 µM, partner dose 0.2 µM)	51.1	90.3	110	84	45.6	99.7	106	77.8	174

From the supplement of paper PMC4604168 (melanoma cell lines)
